Experimental data from PubChem BioAssay AID540256 (National Center for Advancing Translational Sciences (NCATS), 2011).
Screen size: about 300,000 compounds; about 3,700 (1.2%) were called active. The shares of active, inactive and inconclusive entries below differ from those in the screen. The call rests on the fitted dose curve; tested in HEK293 cells. Potencies of inconclusive entries are doubtful fits and often do not repeat.

Assay: qHTS for Inhibitors of binding or entry into cells for Lassa Virus; further: nearly all actives have a fitted effect of over 50% in size
Details: Lassa virus pseudotype entry inhibition, cell reporter; activity change, negative = inhibition: at 37.9 µM (top of the series) unless noted
On the % scale 0 is the no-effect control and ±100 the full control effect; potency means the concentration at half of the fitted maximal effect.

Structure (SMILES) | Potency | activity change, negative = inhibition
CCOc1ccc(NS(=O)(=O)c2ccc3c(c2)CCN3C(=O)C2CCC2)cc1 | inconclusive: 9.2 µM [inhibitor, partial curve] | 
CCCn1c(SCC(=O)N2CCN(C(=O)c3ccco3)CC2)nc2ccccc2c1=O |  | inactive: 24.9% [at 46.1 µM]
CCN1CCN(c2ccc(NC(=O)c3ccc4c(c3)[nH]c(=O)n4Cc3ccc(F)cc3)cc2)CC1 | inconclusive: 20 µM [inhibitor, single point] | 
COc1cccc(NC(=O)Cn2c(=O)n(Cc3ccc4c(c3)OCO4)c(=O)c3oc4ccccc4c32)c1 |  | inactive: -0.612% [at 46.1 µM]
S=C(N/N=C/c1ccc2c(c1)OCO2)NC1CC2CCC1C2 (stereo not drawn) | inconclusive: 10 µM [inhibitor, partial curve] | 
Cc1ccccc1-c1nc(Cc2ccc(Cl)cc2)no1 |  | inactive: 24.7%
C=CCn1c(SCC(=O)O)nnc1-c1ccccc1 | inconclusive: 0.164 µM [activator, full curve, poor fit] | 
C=CCn1c(O)c(N=NC(=S)Nc2ccc(OC)cc2)c2ccccc21 | inconclusive: 0.184 µM [inhibitor, full curve, poor fit] | 
COc1ccccc1C(=O)NC(CCSC)C(=O)N1CCC(Cc2ccccc2)CC1 (stereo not drawn) | inconclusive: 20 µM [inhibitor, partial curve, poor fit] | 
N#Cc1ccc(N2CCN(c3ccc(F)cc3)CC2)cc1 | inconclusive: 16.4 µM [inhibitor, partial curve, poor fit] | 
CC(=O)Cn1ncc(Br)c(Br)c1=O | inconclusive: 35.5 µM [inhibitor, single point] | 
COc1cc(C(=O)OCC(=O)c2c[nH]c3ccccc23)ccc1OCC(=O)N1CCOCC1 | inconclusive: 9.2 µM [inhibitor, partial curve, poor fit] | 
COc1cc(/C=C/c2ccc3cccc(O)c3n2)cc(OC)c1OC |  | inconclusive: 0.444% [activator]
COc1ccc(N2CC(O)(c3ccc(F)cc3)[N+]3=C2CCCC3)cc1 (stereo not drawn) |  | inactive: 11.6%
CCCC[n+]1ccn(-c2nc3ccccc3nc2[N-]S(=O)(=O)c2ccccc2)c1 | inconclusive: 29.1 µM [activator, single point] | 
S=c1[nH]nc(-c2ccco2)n1/N=C/c1ccccc1 | inconclusive: 6.31 µM [inhibitor, full curve, poor fit] | 
Cc1cccc(N2CCN(C(=O)c3ccc(Cl)c(S(=O)(=O)NCc4ccco4)c3)CC2)c1C |  | inactive: -18.9%
CCC[N+]12CCC(CC1)C(=C(c1ccccc1)c1ccccc1)C2 |  | inactive: -0.577%
O=C(c1cccs1)N1CCC(c2nc3c(nnn3Cc3ccccc3)c(=O)[nH]2)CC1 | inconclusive: 0.164 µM [inhibitor, full curve, poor fit] | 
Cc1nn(CCCC(=O)Nc2ccccc2C(F)(F)F)c(=O)c2nn(-c3ccccc3)c(C)c12 |  | inactive: 14.6% [at 46.1 µM]
CCOc1ccc(NC(=O)CSc2ccc(-c3ccccn3)nn2)cc1 | inconclusive: 10 µM [inhibitor, partial curve] | 
COc1cccc(C(=O)Nc2cccc(-c3nnc(-c4ccco4)o3)c2)c1 | inconclusive: 11.2 µM [inhibitor, partial curve, poor fit] | 
CC(C)CC(=O)NC(=S)NCc1ccccc1 |  | inactive: -2.95%

A draw from above in order of number of heavy atoms, low to high.
Structure (SMILES) | Potency | activity change, negative = inhibition
CC(C)CC(=O)NC(=S)NCc1ccccc1 |  | inactive: -2.95%
COc1ccccc1C(=O)NC(CCSC)C(=O)N1CCC(Cc2ccccc2)CC1 (stereo not drawn) | inconclusive: 20 µM [inhibitor, partial curve, poor fit] | 
Cc1cccc(N2CCN(C(=O)c3ccc(Cl)c(S(=O)(=O)NCc4ccco4)c3)CC2)c1C |  | inactive: -18.9%

Next records follow:

Structure (SMILES) | Potency | activity change, negative = inhibition
COc1cc(NC(=O)c2noc3c2CC(C)CC3)c(OC)cc1Cl (stereo not drawn) |  | inactive: -3.16% [at 46.1 µM]
COc1ccc(CNC(=O)CSc2nnc3c(n2)[nH]c2ccc(F)cc23)cc1 |  | inactive: 18.5%
CCOC(=O)c1c(C)[nH]c(C(=O)OCC(=O)Nc2sc(C(=O)N(C)C)c(C)c2C(=O)OCC)c1C | inconclusive: 0.891 µM [inhibitor, single point] | 
Cc1ccc(S(=O)(=O)c2cn(Cc3ccccc3)c3cc(N4CCOCC4)c(F)cc3c2=O)cc1 | inconclusive: 17.8 µM [inhibitor, single point] | 
Cc1cccc(N/C(N)=N/c2nc(C)c(Cc3ccccc3)c(=O)[nH]2)c1 | inconclusive: 8.91 µM [inhibitor, partial curve, poor fit] | 
Cc1nn(-c2ccccc2)c2c1N(CCCC(=O)NC(C)c1ccccc1)C(=O)CS2 (stereo not drawn) |  | inactive: -24.5% [at 46.1 µM]
CC(C)(C)c1nc(SCC(=O)Nc2nc3c(s2)CCCC3)c2ccccc2n1 | active: 1.03 µM | 
CSCC[C@H](NC(=O)OC(C)(C)C)C(=O)NCC1CCC(C(=O)N[C@@H](Cc2ccccc2)C(=O)O)CC1 (stereo partly drawn) | inconclusive: 0.794 µM [activator, single point] | 
O=C(N/N=C/c1ccc(N2CCOCC2)o1)c1ccccc1[N+](=O)[O-] | inconclusive: 2.91 µM [inhibitor, partial curve, poor fit] | 
COc1ccccc1-c1coc2c(CN3CCC(C)CC3)c(O)ccc2c1=O |  | inactive: 24.4% [at 46.1 µM]
CCN(CC)c1ccc(/C=c2\sc3nc4ccccc4n3c2=O)c(O)c1 |  | inactive: 14.6% [at 46.1 µM]
O=C1CC(O)(C(F)(F)F)Oc2c1ccc1ccccc21 (stereo not drawn) | inconclusive: 29.1 µM [inhibitor, single point] | 
Cc1ccc2c(c1)C(c1ccccc1)N(C(=O)c1ccc(Br)cc1)CC(=O)N2 (stereo not drawn) | inconclusive: 17.8 µM [inhibitor, partial curve, poor fit] | 
COc1cc2[nH]c(=O)n(CCCC(=O)NC3CCCCC3)c(=O)c2cc1OC | inconclusive: 0.562 µM [inhibitor, full curve, poor fit] | 
Cc1nnc(C)n1/N=C/c1ccccc1 |  | inactive: 4.65%
CSc1cccc(NC(=O)C2CCCN2S(=O)(=O)c2ccc(Br)s2)c1 (stereo not drawn) |  | inactive: -0.615%
CCC1Oc2ccc(C)cc2N(CC(=O)N(Cc2ccc(C)o2)C2CC(C)(C)NC(C)(C)C2)C1=O (stereo not drawn) | inconclusive: 11.6 µM [inhibitor, partial curve, poor fit] | 
O=c1ccc(-c2ccccc2)nn1Cc1c(F)cccc1Cl | inconclusive: 10 µM [activator, partial curve, poor fit] | 
CCN1CCN(CCCNC(=O)Cn2c(-c3cccs3)cc3cc(Cl)ccc32)CC1 | inconclusive: 10 µM [inhibitor, partial curve, poor fit] | 
Clc1ccc(-c2nnnn2-c2ccc(Cl)c(Cl)c2)cc1Cl | inconclusive: 15.8 µM [inhibitor, partial curve, poor fit] | 
COc1ccc(NC(=O)CN(C)C(=O)c2ccc3[nH]c4c(c3c2)CC(C)CC4)cc1 (stereo not drawn) | inconclusive: 25.1 µM [inhibitor, single point] | 
Cc1cc(C(=O)OCC(=O)N2c3ccccc3CC2C)c(C)o1 (stereo not drawn) |  | inactive: 13.6%
O=C(c1cc2nc(-c3ccccc3)cc(C(F)(F)F)n2n1)N1CCN2CCCC2C1 (stereo not drawn) | inconclusive: 0.316 µM [inhibitor, single point] | 

Structure (SMILES) | Potency | activity change, negative = inhibition
Cc1ccc2cc3c(NC(=O)c4ccco4)nn(C)c3nc2c1 | inconclusive: 17.8 µM [inhibitor, partial curve, poor fit] | 
O=C(Cn1c(=O)ccc2cc(S(=O)(=O)N3CCCC3)ccc21)Nc1ccccc1 | inconclusive: 5.01 µM [inhibitor, single point] | 
Cc1ccc(Cl)cc1N1CCN(C(=O)c2ccc3c(Cl)c4c(nc3c2)CCCC4)CC1 | inconclusive: 5.62 µM [activator, single point] | 
O=C(Nc1ccccc1)C1CC(=O)N(C2CCCCC2)C1 (stereo not drawn) |  | inactive: -5.22%
CC(C)C(=O)N1CCN(c2ccccc2NC(=O)c2cccc3ccccc23)CC1 | inconclusive: 10 µM [inhibitor, partial curve, poor fit] | 
CC(C)Sc1nc(N2CCCC2)c2c(c1C#N)CC(C)(C)OC2 | inconclusive: 29.1 µM [inhibitor, single point] | 
CCOc1nc2c(c(-c3cccs3)c1C#N)Cc1ccccc1-2 |  | inactive: 3.25%
COc1ccc(CCNC(=S)N2CCC(C(N)=O)CC2)cc1 |  | inactive: 15.8%
O=C(Nc1nnc(-c2ccccn2)o1)c1cccc(Cl)c1 | inconclusive: 35.5 µM [inhibitor, single point] | 
O=C(Nc1cccc(S(=O)(=O)N2CCCCC2)c1)C1CCC1 | inconclusive: 10 µM [inhibitor, partial curve, poor fit] | 
Cc1nc(-c2cn[nH]c2)c2cc(C)oc2n1 | inconclusive: 0.517 µM [activator, partial curve, poor fit] | 
CN(C)c1ccc(C(=S)Nc2ccccc2)cc1 | inconclusive: 20.6 µM [inhibitor, single point] | 
CCOC(=O)Nc1cccc2ccccc12 |  | inactive: -10.9%
O=C(Cc1csc(Nc2nc(=S)[nH]c3ccccc23)n1)NCc1ccccc1Cl | inconclusive: 5.17 µM [inhibitor, partial curve] | 
CCOc1ccc(NC(=O)CN(C)C(=O)c2ccc(COc3ccccc3)o2)cc1OCC |  | inactive: 1.06%
O=C(NCCS(=O)(=O)N1CCN(c2ccc(F)cc2)CC1)c1ccc2c(c1)OCO2 |  | inactive: -11.9%
NC1=NC(=O)/C(=C\c2ccco2)S1 |  | inactive: 10.9%
O=c1c2sccc2nc(SCc2ccc([N+](=O)[O-])cc2)n1Cc1ccccn1 | inconclusive: 35.5 µM [inhibitor, single point] | 
CCCCn1c(N)c(Sc2ccccc2)c(=O)[nH]c1=O | inconclusive: 0.146 µM [inhibitor, full curve, poor fit] | 
CCc1ccc(NC(=O)C(=O)NCC(c2ccc3c(c2)OCO3)N2CCN(C)CC2)cc1 (stereo not drawn) | inconclusive: 28.2 µM [inhibitor, partial curve, poor fit] | 
CCOC(=O)C1CCCN(C(=O)c2ccc3c(c2)N(C)C(=O)/C(=C/c2ccccc2Cl)S3)C1 (stereo not drawn) | inconclusive: 2.51 µM [inhibitor, full curve, poor fit] | 
CC(=O)c1c(C)[nH]c(C(=O)COc2cc(C)ccc2C(C)C)c1C | inconclusive: 12.6 µM [inhibitor, single point] | 
